According to the supplement of paper PMC10849652:
Some of the results follow.

Protein sequences, listed by entry. Tags and fused reporters are not part of them. Lines headed by an entry give the natural chain unless they say otherwise; changes in a name come on top.
UniProt O94832: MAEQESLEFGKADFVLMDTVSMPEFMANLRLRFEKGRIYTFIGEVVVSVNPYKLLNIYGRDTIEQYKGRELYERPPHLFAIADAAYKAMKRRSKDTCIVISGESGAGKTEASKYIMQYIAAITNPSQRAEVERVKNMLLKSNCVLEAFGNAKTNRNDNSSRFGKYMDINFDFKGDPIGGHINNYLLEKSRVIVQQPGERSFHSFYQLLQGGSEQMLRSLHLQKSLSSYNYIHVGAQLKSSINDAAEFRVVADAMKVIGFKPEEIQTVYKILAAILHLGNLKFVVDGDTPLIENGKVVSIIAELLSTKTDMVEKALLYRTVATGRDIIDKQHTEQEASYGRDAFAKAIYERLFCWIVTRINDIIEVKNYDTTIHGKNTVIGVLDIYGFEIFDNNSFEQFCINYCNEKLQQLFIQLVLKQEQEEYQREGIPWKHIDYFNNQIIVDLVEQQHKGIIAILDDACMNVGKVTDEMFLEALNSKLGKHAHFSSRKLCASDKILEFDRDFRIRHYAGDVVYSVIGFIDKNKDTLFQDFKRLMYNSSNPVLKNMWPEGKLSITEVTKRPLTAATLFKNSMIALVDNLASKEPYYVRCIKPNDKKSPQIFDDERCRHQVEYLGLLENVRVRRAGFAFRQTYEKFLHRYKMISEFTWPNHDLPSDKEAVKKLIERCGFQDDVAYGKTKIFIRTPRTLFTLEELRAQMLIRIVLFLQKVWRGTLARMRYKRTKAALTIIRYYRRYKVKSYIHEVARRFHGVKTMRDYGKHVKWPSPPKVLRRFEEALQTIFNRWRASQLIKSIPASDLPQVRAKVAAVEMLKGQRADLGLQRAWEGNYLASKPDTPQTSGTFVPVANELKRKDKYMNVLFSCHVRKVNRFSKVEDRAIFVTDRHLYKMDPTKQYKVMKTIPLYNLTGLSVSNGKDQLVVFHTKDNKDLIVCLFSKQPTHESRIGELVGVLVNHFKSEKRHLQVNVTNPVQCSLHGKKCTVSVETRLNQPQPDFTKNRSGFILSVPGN
UniProt Q13496: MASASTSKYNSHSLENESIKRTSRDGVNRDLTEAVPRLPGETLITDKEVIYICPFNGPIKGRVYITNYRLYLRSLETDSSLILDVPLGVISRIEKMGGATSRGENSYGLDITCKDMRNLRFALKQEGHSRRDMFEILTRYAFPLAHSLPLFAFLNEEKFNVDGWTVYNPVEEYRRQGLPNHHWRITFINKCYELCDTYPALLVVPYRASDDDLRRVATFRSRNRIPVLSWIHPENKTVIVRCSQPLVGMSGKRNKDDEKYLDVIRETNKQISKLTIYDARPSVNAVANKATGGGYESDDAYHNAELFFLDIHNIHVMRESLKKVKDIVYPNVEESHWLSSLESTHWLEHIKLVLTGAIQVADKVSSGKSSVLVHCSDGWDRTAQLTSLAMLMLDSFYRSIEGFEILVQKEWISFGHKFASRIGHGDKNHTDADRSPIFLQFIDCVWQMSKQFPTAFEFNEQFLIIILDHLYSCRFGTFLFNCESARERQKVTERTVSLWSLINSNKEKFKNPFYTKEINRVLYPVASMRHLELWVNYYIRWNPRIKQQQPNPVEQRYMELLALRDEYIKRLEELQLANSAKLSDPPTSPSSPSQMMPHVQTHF
UniProt Q9UDX5: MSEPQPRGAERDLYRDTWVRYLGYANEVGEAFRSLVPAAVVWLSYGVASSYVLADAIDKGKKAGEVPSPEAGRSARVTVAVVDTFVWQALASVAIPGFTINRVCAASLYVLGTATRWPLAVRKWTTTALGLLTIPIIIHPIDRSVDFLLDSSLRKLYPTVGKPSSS
UniProt Q9UM54, whole entry, looked up: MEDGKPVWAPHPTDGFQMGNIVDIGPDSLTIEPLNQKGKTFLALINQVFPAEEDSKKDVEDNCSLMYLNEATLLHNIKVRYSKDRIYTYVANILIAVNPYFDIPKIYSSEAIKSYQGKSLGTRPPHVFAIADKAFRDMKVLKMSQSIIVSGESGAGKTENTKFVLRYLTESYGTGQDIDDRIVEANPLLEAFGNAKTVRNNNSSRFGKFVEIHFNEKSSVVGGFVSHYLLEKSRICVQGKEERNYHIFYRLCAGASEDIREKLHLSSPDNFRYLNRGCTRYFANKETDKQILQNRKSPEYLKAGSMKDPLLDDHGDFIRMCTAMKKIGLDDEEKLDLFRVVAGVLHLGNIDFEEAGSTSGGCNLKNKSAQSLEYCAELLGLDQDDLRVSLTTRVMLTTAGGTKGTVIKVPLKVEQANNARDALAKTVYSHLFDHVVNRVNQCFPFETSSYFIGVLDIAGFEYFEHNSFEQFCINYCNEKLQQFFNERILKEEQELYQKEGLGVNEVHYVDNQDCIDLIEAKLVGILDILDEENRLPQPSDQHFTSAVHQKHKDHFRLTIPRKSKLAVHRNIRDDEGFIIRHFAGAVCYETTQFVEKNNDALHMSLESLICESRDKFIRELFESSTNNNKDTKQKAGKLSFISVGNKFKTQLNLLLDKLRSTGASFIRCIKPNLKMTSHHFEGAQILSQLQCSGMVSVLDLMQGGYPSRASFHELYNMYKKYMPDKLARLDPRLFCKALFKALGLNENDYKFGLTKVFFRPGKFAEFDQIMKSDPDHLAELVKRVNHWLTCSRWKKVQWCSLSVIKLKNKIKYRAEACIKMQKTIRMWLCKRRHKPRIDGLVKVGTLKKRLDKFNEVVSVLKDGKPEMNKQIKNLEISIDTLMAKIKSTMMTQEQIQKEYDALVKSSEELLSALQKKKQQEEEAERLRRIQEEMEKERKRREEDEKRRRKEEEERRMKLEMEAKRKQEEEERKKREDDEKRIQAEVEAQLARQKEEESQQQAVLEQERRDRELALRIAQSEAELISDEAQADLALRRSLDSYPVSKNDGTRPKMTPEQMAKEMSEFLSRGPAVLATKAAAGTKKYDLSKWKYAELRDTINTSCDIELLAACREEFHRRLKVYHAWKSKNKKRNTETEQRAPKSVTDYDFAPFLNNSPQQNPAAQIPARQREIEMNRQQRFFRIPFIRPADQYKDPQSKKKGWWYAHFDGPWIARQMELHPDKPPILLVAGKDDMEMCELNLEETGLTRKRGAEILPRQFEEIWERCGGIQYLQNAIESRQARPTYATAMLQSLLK
UniProt Q96E11: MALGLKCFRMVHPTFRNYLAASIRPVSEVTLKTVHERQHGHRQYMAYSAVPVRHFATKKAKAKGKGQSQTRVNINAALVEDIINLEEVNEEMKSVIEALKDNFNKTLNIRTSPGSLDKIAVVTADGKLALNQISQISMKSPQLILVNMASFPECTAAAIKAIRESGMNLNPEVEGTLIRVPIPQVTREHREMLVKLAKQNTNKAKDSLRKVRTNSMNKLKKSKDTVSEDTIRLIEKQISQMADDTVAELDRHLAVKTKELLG
UniProt O75431: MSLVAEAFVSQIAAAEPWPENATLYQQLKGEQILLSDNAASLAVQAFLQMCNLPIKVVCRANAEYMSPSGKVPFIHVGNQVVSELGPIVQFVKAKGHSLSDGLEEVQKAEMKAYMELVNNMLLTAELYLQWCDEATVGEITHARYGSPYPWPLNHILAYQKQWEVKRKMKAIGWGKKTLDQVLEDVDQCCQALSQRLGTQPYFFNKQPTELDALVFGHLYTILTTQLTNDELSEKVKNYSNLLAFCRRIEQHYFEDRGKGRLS
UniProt Q86UE4: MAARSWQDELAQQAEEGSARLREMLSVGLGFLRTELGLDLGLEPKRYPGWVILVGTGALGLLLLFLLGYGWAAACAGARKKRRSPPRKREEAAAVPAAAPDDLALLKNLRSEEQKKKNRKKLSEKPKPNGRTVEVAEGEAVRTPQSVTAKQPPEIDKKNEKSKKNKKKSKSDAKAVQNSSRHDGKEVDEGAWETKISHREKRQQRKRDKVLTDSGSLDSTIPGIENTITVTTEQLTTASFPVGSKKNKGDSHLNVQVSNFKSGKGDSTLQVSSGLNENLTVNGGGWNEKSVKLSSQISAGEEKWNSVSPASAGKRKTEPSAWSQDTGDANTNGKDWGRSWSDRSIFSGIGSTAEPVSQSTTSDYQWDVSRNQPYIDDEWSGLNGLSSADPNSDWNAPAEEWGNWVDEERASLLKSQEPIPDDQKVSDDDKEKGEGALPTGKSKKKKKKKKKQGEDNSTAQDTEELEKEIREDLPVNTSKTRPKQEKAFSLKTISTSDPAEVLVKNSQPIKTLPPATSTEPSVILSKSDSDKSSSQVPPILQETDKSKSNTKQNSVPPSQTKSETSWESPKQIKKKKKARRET
UniProt P00156: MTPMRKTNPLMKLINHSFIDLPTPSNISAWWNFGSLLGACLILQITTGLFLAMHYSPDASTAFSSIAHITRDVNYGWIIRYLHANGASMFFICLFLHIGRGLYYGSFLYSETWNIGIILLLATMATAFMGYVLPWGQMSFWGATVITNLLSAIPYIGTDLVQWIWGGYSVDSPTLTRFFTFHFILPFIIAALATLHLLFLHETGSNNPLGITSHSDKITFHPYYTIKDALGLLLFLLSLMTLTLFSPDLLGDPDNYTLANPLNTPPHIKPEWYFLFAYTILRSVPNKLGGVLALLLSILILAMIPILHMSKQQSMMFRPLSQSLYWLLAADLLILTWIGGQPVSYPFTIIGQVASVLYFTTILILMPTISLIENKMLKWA
UniProt Q7Z406, whole entry, looked up: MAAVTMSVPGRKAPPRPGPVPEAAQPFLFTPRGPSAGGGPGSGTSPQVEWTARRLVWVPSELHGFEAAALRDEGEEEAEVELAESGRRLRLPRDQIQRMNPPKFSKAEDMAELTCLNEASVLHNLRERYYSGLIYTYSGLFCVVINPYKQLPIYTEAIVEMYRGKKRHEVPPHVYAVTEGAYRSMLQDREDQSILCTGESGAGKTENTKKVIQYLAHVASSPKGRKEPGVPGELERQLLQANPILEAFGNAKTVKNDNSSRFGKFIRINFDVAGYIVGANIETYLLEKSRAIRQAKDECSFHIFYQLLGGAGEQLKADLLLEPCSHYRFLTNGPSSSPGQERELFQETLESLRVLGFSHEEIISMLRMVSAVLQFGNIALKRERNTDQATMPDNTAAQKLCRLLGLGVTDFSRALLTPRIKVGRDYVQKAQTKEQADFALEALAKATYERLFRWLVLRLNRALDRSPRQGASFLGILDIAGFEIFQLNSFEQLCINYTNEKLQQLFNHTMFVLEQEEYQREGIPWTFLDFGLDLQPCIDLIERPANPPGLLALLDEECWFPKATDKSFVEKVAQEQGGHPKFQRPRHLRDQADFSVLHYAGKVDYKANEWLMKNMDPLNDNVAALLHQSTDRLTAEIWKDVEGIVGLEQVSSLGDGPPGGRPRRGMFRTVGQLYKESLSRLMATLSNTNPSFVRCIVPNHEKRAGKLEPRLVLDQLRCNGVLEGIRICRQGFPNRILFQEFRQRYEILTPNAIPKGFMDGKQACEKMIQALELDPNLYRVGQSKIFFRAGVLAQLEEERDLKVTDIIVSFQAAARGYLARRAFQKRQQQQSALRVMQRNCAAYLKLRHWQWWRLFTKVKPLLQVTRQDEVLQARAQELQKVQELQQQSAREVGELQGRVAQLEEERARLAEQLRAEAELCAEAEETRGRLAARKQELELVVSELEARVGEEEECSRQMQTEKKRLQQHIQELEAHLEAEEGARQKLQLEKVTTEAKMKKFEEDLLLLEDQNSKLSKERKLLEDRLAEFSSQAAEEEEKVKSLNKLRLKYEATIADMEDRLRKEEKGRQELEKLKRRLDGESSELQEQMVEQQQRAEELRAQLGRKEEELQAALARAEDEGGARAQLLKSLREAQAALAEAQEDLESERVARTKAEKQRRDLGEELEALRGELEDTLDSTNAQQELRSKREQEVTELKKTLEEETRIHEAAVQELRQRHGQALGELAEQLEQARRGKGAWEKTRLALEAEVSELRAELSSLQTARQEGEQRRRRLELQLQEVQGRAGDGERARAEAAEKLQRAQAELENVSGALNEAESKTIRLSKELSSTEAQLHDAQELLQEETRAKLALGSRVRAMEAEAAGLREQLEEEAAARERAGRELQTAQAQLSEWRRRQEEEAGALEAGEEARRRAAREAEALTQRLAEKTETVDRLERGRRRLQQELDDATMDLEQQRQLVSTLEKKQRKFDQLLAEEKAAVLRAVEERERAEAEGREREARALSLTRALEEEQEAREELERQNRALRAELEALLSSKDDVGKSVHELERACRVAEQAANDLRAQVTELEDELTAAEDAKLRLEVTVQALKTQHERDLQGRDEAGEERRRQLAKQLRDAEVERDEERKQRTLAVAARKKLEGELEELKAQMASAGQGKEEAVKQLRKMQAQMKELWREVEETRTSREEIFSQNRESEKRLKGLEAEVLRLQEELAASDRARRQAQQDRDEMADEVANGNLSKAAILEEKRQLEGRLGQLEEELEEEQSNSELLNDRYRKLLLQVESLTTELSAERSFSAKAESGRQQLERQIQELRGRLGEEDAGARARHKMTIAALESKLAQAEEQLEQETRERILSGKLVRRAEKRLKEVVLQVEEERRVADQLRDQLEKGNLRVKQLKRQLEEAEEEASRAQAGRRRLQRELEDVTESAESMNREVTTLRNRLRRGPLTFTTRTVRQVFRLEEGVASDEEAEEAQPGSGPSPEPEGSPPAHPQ

What was measured:
Test in all cases: log2 fold change, soluble protein after heating vs DMSO (PISA); higher = thermal stabilisation; K562 cells, 10 uM, 30 min; active = over 0.2 and 3.5 SD of the protein, either way, in both replicates (recomputed)
[1] = compound: CC1=C(C=C(C=C1)NC(=O)C2=CC(=CC=C2)C(C)(C)C#N)NC3=CC4=C(C=C3)N=CN(C4=O)C
Method in brief: (§1)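 Quantification of soluble protein used TMTpro 16plex LC-MS/MS, with channel sums equalised. Samples were the supernatant after 21,000xg for 90 min of pooled aliquots from K562 cells (2×10^6 cells/mL) treated with 10 μM compound for 30 min, heated for 3 min over 48°C-58°C, and extracted in PBS with 0.5% NP-40 at 4°C. Values, from duplicates, describe thermal stability against control samples on a log2 fold-change scale.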

[2] = compound: CC1=C(C=C(C=C1)NC(=O)C2=CC(=CC=C2)N(C)C)NC(=O)C3=CC=C(C=C3)O
Method in brief: as §1

[3] = compound: CC1=CC=C(C=C1)SC2=C3C=C(SC3=CN=C2)C(=O)N
Method in brief: as §1

[4] = compound: CC1=NC(=CC=C1)C2=C(N=C(N2)C(C)(C)C)C3=CC4=NC=CN=C4C=C3
Method in brief: as §1

[5] = compound: CCCCN(Cc1ccc(C(=O)NO)cc1)C(=O)Nc1ccccc1 [Nexturastat A]
Method in brief: as §1

[6] = compound: CCCS(=O)(=O)Nc1ccc(F)c(C(=O)c2c[nH]c3ncc(-c4ccc(Cl)cc4)cc23)c1F [vemurafenib]
Method in brief: as §1

[7] = compound: CCCS(=O)(=O)Nc1ccc(F)c(C(=O)c2c[nH]c3ncc(Cl)cc23)c1F
Method in brief: as §1

[8] = compound: CCCc1cc(C)[nH]c(=O)c1CNC(=O)c1cc(-c2ccnc(N3CCN(C)CC3)c2)cc2c1cnn2C(C)C
Method in brief: as §1

[9] = compound: CCN(CC)Cc1ccc2cc(COC(=O)Nc3ccc(C(=O)NO)cc3)ccc2c1 [givinostat]
Method in brief: as §1

[10] = compound: CCN(CCCOc1ccc2c(Nc3cc(CC(=O)Nc4cccc(F)c4)[nH]n3)ncnc2c1)CCOP(=O)(O)O [barasertib]
Method in brief: as §1

[11] = compound: CC[C@@H]1C(=O)N(C)c2cnc(Nc3ccc(C(=O)NC4CCN(C)CC4)cc3OC)nc2N1C1CCCC1
Method in brief: as §1

[12] = compound: CC[C@@H]1C(=O)N(C)c2cnc(Nc3ccc(C(=O)N[C@H]4CC[C@H](N5CCN(CC6CC6)CC5)CC4)cc3OC)nc2N1C(C)C [volasertib]
Method in brief: as §1

[13] = compound: CC[C@H](C)N1C=C(C2=C(C=C(C=C21)C3=CN=C(C=C3)N4CCNCC4)C(=O)NCC5=C(C=C(NC5=O)C)C)C
Method in brief: as §1

[14] = compound: CC[C@H](C)[C@@H](C(=O)N[C@@H]([C@@H](C)O)C(=O)N[C@@H](CC(C)C)C(=O)[C@]1(CO1)C)NC(=O)[C@H]([C@@H](C)CC)N(C)C(=O)C [epoxomicin]
Method in brief: as §1

[15] = compound: CCn1c(C(=O)N(C2CC2)C2CC2)cc2c3c(ncn3C)c(Nc3cc(C)n(C)n3)nc21
Method in brief: as §1

[16] = compound: CCn1cc(-c2ccnc3[nH]c(-c4cccc(CN(C)C)c4)cc23)c(-c2ccc(NC(=O)N(C)C)cc2)n1
Method in brief: as §1

[17] = compound: CN(C)CC(=O)Nc1ccc2[nH]c(=O)c3ccccc3c2c1
Method in brief: as §1

[18] = compound: CN(CCOC1=CC=C(C=C1)C[C@H]2C(=O)NC(=O)S2)C3=CC=CC=N3 (racemic) [rosiglitazone]
Method in brief: as §1

[19] = compound: CN1C2=C(C3=C1C(=O)N(N=C3)CC4=CC(=CC=C4)N)SC(=C2)S(=O)C
Method in brief: as §1

[20] = compound: CN1CCC(CNc2ccc3ncc(-c4cccc(OC(F)(F)F)c4)n3n2)CC1
Method in brief: as §1

Measured: log2 fold change

MYO1D (UniProt O94832)
inactive: [1] 0.105 | [2] 0.042 | [3] -0.008 | [4] -0.02 | [5] 0.239 | [6] 0.006 | [7] 0.012 | [8] 0.157 | [9] 0.057 | [10] -0.037 | [11] 0.033 | [12] -0.198 | [13] -0.033 | [14] -0.196 | [15] -0.005 | [16] 0.079 | [17] -0.019 | [18] -0.049 | [19] 0.171 | [20] -0.198

MSN (UniProt P26038)
inactive: [1] 0.053 | [2] 0.008 | [3] -0.02 | [4] 0.039 | [5] -0.027 | [6] 0.042 | [7] 0.008 | [8] 0.026 | [9] -0.023 | [10] 0.028 | [11] -0.018 | [12] 0.042 | [13] 0.024 | [14] 0.036 | [15] 0.013 | [16] -0.032 | [17] -0.001 | [18] 0.016 | [19] -0.075 | [20] 0.085

MTPAP (UniProt Q9NVV4)
inactive: [1] -0.051 | [2] -0.021 | [3] -0.045 | [4] 0.009 | [5] 0.245 | [6] -0.016 | [7] 0.065 | [8] 0.244 | [9] -0.003 | [10] 0.024 | [11] 0.039 | [12] -0.2 | [13] 0 | [14] 0.021 | [15] 0.006 | [16] 0.061 | [17] -0.067 | [18] 0.022 | [19] 0.133 | [20] -0.043

MTM1 (UniProt Q13496)
inactive: [1] -0.023 | [2] 0.016 | [3] 0.035 | [4] -0.009 | [5] -0.046 | [6] 0.014 | [7] 0.024 | [8] 0.053 | [9] 0.003 | [10] 0.006 | [11] 0.085 | [12] -0.009 | [13] 0.022 | [14] 0.05 | [15] 0.004 | [16] 0.035 | [17] 0.025 | [18] 0.037 | [19] -0.053 | [20] -0.01

MRS2 (UniProt Q9HD23)
inactive: [1] 0.037 | [2] 0.011 | [3] 0.003 | [4] 0.017 | [5] -0.02 | [6] -0.016 | [7] 0.051 | [8] -0.046 | [9] -0.019 | [10] -0.031 | [11] 0.033 | [12] 0.024 | [13] 0.03 | [14] 0.003 | [15] 0.003 | [16] 0.07 | [17] -0.01 | [18] 0.026 | [19] -0.032 | [20] 0.127

MTFP1 (UniProt Q9UDX5)
inactive: [1] -0.044 | [2] -0.065 | [3] 0.033 | [4] -0.043 | [5] 0 | [6] -0.038 | [7] -0.05 | [8] -0.197 | [9] -0.01 | [10] 0.007 | [11] 0.071 | [12] 0.011 | [13] -0.041 | [14] -0.045 | [15] 0.043 | [16] 0.019 | [17] 0.087 | [18] 0.009 | [19] -0.009 | [20] 0.036

MVB12A (UniProt Q96EY5)
inactive: [1] -0.015 | [2] 0.021 | [3] 0.018 | [4] -0.071 | [5] -0.01 | [6] 0.041 | [7] 0.038 | [8] -0.024 | [9] 0.071 | [10] 0.069 | [11] -0.055 | [12] -0.127 | [13] 0.056 | [14] 0.016 | [15] -0.022 | [16] 0.073 | [17] 0.18 | [18] -0.001 | [19] -0.013 | [20] -0.101

2 records picked at random from those above:
MYO1D (UniProt O94832)
inactive: [1] 0.105 | [2] 0.042 | [3] -0.008 | [4] -0.02 | [5] 0.239 | [6] 0.006 | [7] 0.012 | [8] 0.157 | [9] 0.057 | [10] -0.037 | [11] 0.033 | [12] -0.198 | [13] -0.033 | [14] -0.196 | [15] -0.005 | [16] 0.079 | [17] -0.019 | [18] -0.049 | [19] 0.171 | [20] -0.198

MRS2 (UniProt Q9HD23)
inactive: [1] 0.037 | [2] 0.011 | [3] 0.003 | [4] 0.017 | [5] -0.02 | [6] -0.016 | [7] 0.051 | [8] -0.046 | [9] -0.019 | [10] -0.031 | [11] 0.033 | [12] 0.024 | [13] 0.03 | [14] 0.003 | [15] 0.003 | [16] 0.07 | [17] -0.01 | [18] 0.026 | [19] -0.032 | [20] 0.127

The list continues.

MUC1, A0A087WWM1
inactive: [1] 0.032 | [2] 0.036 | [3] 0.06 | [4] 0.027 | [5] 0.026 | [6] -0.1 | [7] -0.023 | [8] -0.016 | [9] -0.013 | [10] 0.034 | [11] 0.088 | [12] 0.054 | [13] 0.018 | [14] 0.023 | [15] 0.027 | [16] -0.082 | [17] 0.035 | [18] -0.006 | [19] -0.125 | [20] 0.147

MYO6 isoform 6 (UniProt Q9UM54)
inactive: [1] -0.04 | [2] -0.005 | [3] -0.015 | [4] -0.023 | [5] -0.038 | [6] -0.006 | [7] 0.001 | [8] -0.025 | [9] -0.075 | [10] 0 | [11] 0.079 | [12] 0.007 | [13] -0.027 | [14] -0.005 | [15] -0.024 | [16] -0.132 | [17] -0.009 | [18] 0.004 | [19] -0.096 | [20] 0.037

MRRF (UniProt Q96E11)
inactive: [1] 0.024 | [2] -0.06 | [3] 0.055 | [4] 0.057 | [5] -0.088 | [6] -0.012 | [7] 0.042 | [8] 0.005 | [9] 0.007 | [10] 0.046 | [11] 0.015 | [12] -0.087 | [13] 0.07 | [14] 0.04 | [15] -0.037 | [16] -0.03 | [17] 0.01 | [18] 0.036 | [19] 0.036 | [20] 0.101

MTX2 (UniProt O75431)
inactive: [1] -0.017 | [2] -0.008 | [3] -0.043 | [4] -0.024 | [5] 0.049 | [6] 0.034 | [7] 0.008 | [8] -0.007 | [9] 0.01 | [10] -0.009 | [11] -0.005 | [12] -0.044 | [13] 0.023 | [14] -0.023 | [15] -0.022 | [16] -0.05 | [17] 0.012 | [18] 0.034 | [19] -0.026 | [20] 0.029

MRPS11 (UniProt P82912)
inactive: [1] 0.025 | [2] -0.079 | [3] -0.048 | [4] -0.142 | [5] -0.054 | [6] 0.035 | [7] -0.061 | [8] -0.011 | [9] 0.009 | [10] 0.14 | [11] 0.056 | [12] 0.081 | [13] 0.159 | [14] -0.086 | [15] -0.197 | [16] 0.118 | [17] -0.069 | [18] 0.099 | [19] 0.016 | [20] 0.42

MSI2 (UniProt Q96DH6)
inactive: [1] 0.067 | [2] 0.032 | [3] -0.027 | [4] 0.021 | [5] 0.102 | [6] 0.041 | [7] 0.03 | [8] 0.021 | [9] -0.031 | [10] -0.009 | [11] 0.163 | [12] 0.012 | [13] -0.013 | [14] -0.122 | [15] -0.003 | [16] 0.005 | [17] 0.023 | [18] 0.091 | [19] 0.084 | [20] -0.003

MTDH (UniProt Q86UE4)
inactive: [1] -0.006 | [2] 0.003 | [3] -0.04 | [4] -0.089 | [5] 0.274 | [6] -0.12 | [7] -0.013 | [8] 0.134 | [9] 0.021 | [10] -0.137 | [11] 0.222 | [12] 0.358 | [13] -0.052 | [14] -0.318 | [15] 0.017 | [16] 0.27 | [17] -0.123 | [18] -0.169 | [19] 0.278 | [20] 0.331

MT-CYB (UniProt P00156)
inactive: [1] 0.012 | [2] 0.088 | [3] -0.026 | [4] 0.015 | [5] -0.094 | [6] 0.03 | [7] 0.14 | [8] -0.262 | [9] -0.028 | [10] -0.206 | [11] 0.076 | [12] -0.185 | [13] -0.031 | [14] -0.381 | [15] -0.01 | [16] -0.112 | [17] 0.139 | [18] 0.038 | [19] 0.003 | [20] 0.165

MYH14 isoform 2 (UniProt Q7Z406)
inactive: [1] -0.044 | [2] -0.021 | [3] 0.052 | [4] 0.015 | [5] 0.018 | [6] 0.026 | [7] 0.091 | [8] -0.002 | [9] -0.078 | [10] 0.034 | [11] -0.019 | [12] -0.128 | [13] -0.011 | [14] 0.123 | [15] -0.019 | [16] -0.047 | [17] 0.005 | [18] 0.044 | [19] -0.011 | [20] -0.08
